Source: the supplement of paper PMC4604168 (melanoma cell lines)
The list shows a part of the results. Many values rest on one well or one pass, so single values are uncertain.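 Imaging used 1,536-well plates; nuclei positive for cleaved PARP by antibody were divided by total DNA-stained nuclei to yield the apoptosis fraction. Doses for screening kept most cells viable, and cell lines differ markedly in resting and induced cleaved-PARP levels.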

Key:
Assay in all cases: cleaved PARP positive nuclei fraction relative to DMSO control; melanoma cells; higher = more apoptosis
Details in all cases: library dose: low library concentration; 72 h
[1] = system: 501Mel
[2] = system: A101D
[3] = system: A2058
[4] = system: A375
[5] = system: C32
[6] = system: CBRC008 (line from a melanoma biopsy)
[7] = system: CBRC014 (line from a melanoma biopsy)
[8] = system: CBRC016 (line from a melanoma biopsy)
[9] = system: CBRC017 (line from a melanoma biopsy)
[10] = system: CBRC034 (line from a melanoma biopsy)
[11] = system: COLO792
[12] = system: COLO800
[13] = system: COLO829
[14] = system: G361
[15] = system: IPC-298
[16] = system: IST-MEL1
[17] = system: LB2518-MEL
[18] = system: LOXIMVI
[19] = system: MEL-HO

| Compound | cleaved PARP positive nuclei fraction [1] [%] | cleaved PARP positive nuclei fraction [2] [%] | cleaved PARP positive nuclei fraction [3] [%] | cleaved PARP positive nuclei fraction [4] [%] | cleaved PARP positive nuclei fraction [5] [%] | cleaved PARP positive nuclei fraction [6] [%] | cleaved PARP positive nuclei fraction [7] [%] | cleaved PARP positive nuclei fraction [8] [%] | cleaved PARP positive nuclei fraction [9] [%] | cleaved PARP positive nuclei fraction [10] [%] | cleaved PARP positive nuclei fraction [11] [%] | cleaved PARP positive nuclei fraction [12] [%] | cleaved PARP positive nuclei fraction [13] [%] | cleaved PARP positive nuclei fraction [14] [%] | cleaved PARP positive nuclei fraction [15] [%] | cleaved PARP positive nuclei fraction [16] [%] | cleaved PARP positive nuclei fraction [17] [%] | cleaved PARP positive nuclei fraction [18] [%] | cleaved PARP positive nuclei fraction [19] [%] |
| --- | --- | --- | --- | --- | --- | --- | --- | --- | --- | --- | --- | --- | --- | --- | --- | --- | --- | --- | --- |
| O=C(O)[C@@H]1[O][Sb](=[O])([O][Sb]2(=[O])[O][C@H]([C@H](O)CO)[C@H](O)[C@H](C(=O)O)[O]2)[O][C@H]([C@H](O)CO)[C@@H]1O (some centres undefined) [stibogluconate] + CO[C@H]1C[C@@H]2CC[C@@H](C)[C@@](O)(O2)C(=O)C(=O)N2CCCC[C@H]2C(=O)O[C@H]([C@H](C)C[C@@H]2CC[C@@H](OCCO)[C@H](OC)C2)CC(=O)[C@H](C)/C=C(\C)[C@@H](O)[C@@H](OC)C(=O)[C@H](C)C[C@H](C)/C=C/C=C/C=C/1C [everolimus] (first compound 2 µM, partner dose 0.02 µM) | 501 | 50.8 | 51.1 | 1340 | 109 | 122 | 73 | 144 | 291 | 52.6 | 122 | 205 | 125 | 78.4 | 159 | 148 | 140 | 182 | 36.4 |
| CC(C)C[C@H](NC(=O)[C@H](Cc1ccccc1)NC(=O)c1cnccn1)B(O)O [Bortezomib] + C=CCNC1=C2C[C@@H](C)C[C@H](OC)[C@H](O)[C@@H](C)/C=C(\C)[C@H](OC(N)=O)[C@@H](OC)/C=C\C=C(/C)C(=O)NC(=CC1=O)C2=O [Tanespimycin] (first compound 0.001 µM, partner dose 0.002 µM) | 407 | 430 | 119 | 91.5 | 161 | 2590 | 254 | 445 | 242 | 879 | 71.4 | 77.9 | 254 | 3500 | 124 | 107 | 737 | 46.8 | 98.3 |
| O=C(O)c1ccc2c(c1)nc(Nc1cccc(Cl)c1)c1ccncc12 + COCC[n+]1c2c(n(Cc3cnccn3)c1C)C(=O)c1ccccc1C2=O [YM155] (first compound 0.4 µM, partner dose 0.0004 µM) | 218 | 97.5 | 40.1 | 71.1 | 83.7 | 325 | 130 | 161 | 208 | 66.2 | 147 | 64.5 | 168 | 196 | 43.4 | 136 | 103 | 142 | 141 |
| Nc1nc(F)nc2c1ncn2[C@@H]1O[C@H](CO)[C@@H](O)[C@@H]1O [fludarabine] + Clc1ccc(Nc2nnc(Cc3ccncc3)c3ccccc23)cc1 [vatalanib] (first compound 0.2 µM, partner dose 2 µM) | 19600 | 199 | 77.8 | 1450 | 81.7 | 165 | 107 | 217 | 118 | 63.5 | 80.8 | 103 | 160 | 86.9 | 104 | 639 | 117 | 212 | 77.6 |
| CS(=O)(=O)CCNCc1ccc(-c2ccc3ncnc(Nc4ccc(OCc5cccc(F)c5)c(Cl)c4)c3c2)o1 [lapatinib] + C=CCNC1=C2C[C@@H](C)C[C@H](OC)[C@H](O)[C@@H](C)/C=C(\C)[C@H](OC(N)=O)[C@@H](OC)/C=C\C=C(/C)C(=O)NC(=CC1=O)C2=O [Tanespimycin] (first compound 0.8 µM, partner dose 0.002 µM) | 66.2 | 48.9 | 102 | 187 | 84.8 | 81.8 | 112 | 96 | 102 | 58.2 | 103 | 96.3 | 91.6 | 76.6 | 39 | 63.1 | 69.6 | 71.1 | 80 |
| C[C@@H](Oc1cc(-c2cnn(C3CCNCC3)c2)cnc1N)c1c(Cl)ccc(F)c1Cl [Crizotinib] + CCCS(=O)(=O)Nc1ccc(F)c(C(=O)c2c[nH]c3ncc(Cl)cc23)c1F [PLX4720] (first compound 0.2 µM, partner dose 0.08 µM) | 63.2 | 92.7 | 33.8 | 175 | 86.1 | 128 | 98.5 | 101 | 82.6 | 43.3 | 50.4 | 80.1 | 46.3 | 101 | 187 | 61.1 | 99.1 | 216 | 175 |
| CNC(=O)c1cc(Oc2ccc(NC(=O)Nc3ccc(Cl)c(C(F)(F)F)c3)cc2)ccn1 [sorafenib] + Clc1ccc(Nc2nnc(Cc3ccncc3)c3ccccc23)cc1 [vatalanib] (first compound 0.4 µM, partner dose 2 µM) | 58.2 | 95.2 | 106 | 106 | 138 | 41.5 | 107 | 140 | 110 | 220 | 99.2 | 107 | 61.1 | 155 | 123 | 70.4 | 22.6 | 55.5 | 200 |
| C[C@@H](Oc1cc(-c2cnn(C3CCNCC3)c2)cnc1N)c1c(Cl)ccc(F)c1Cl [Crizotinib] + COc1ccc(Cl)c(Nc2nc3ccccc3nc2NS(=O)(=O)c2cccc(NC(=O)C(C)(C)N)c2)c1 [XL147] (first compound 0.2 µM, partner dose 0.8 µM) | 52.4 | 136 | 153 | 90.9 | 85 | 344 | 142 | 208 | 174 | 178 | 91.5 | 86.9 | 96.5 | 129 | 61.5 | 137 | 106 | 343 | 56.1 |
| Cc1cc(Nc2cc(N3CCN(C)CC3)nc(/C=C/c3ccccc3)n2)n[nH]1 + Nc1nc(F)nc2c1ncn2[C@@H]1O[C@H](CO)[C@@H](O)[C@@H]1O [fludarabine] (first compound 0.04 µM, partner dose 0.2 µM) | 16600 | 44 | 55.5 | 5330 | 74.1 | 172 | 107 | 563 | 101 | 113 | 165 | 98.2 | 107 | 227 | 28 | 67.3 | 48.5 | 64.2 | 180 |
| CS(=O)(=O)CCNCc1ccc(-c2ccc3ncnc(Nc4ccc(OCc5cccc(F)c5)c(Cl)c4)c3c2)o1 [lapatinib] + C#Cc1cccc(Nc2ncnc3cc(OCCOC)c(OCCOC)cc23)c1 [erlotinib] (first compound 0.8 µM, partner dose 0.8 µM) | 173 | 447 | 30.1 | 52 | 85.9 | 248 | 90.7 | 60 | 117 | 72.5 | 113 | 138 | 124 | 77.3 | 97.9 | 66.3 | 117 | 103 | 116 |
| Cc1cc(Nc2cc(N3CCN(C)CC3)nc(/C=C/c3ccccc3)n2)n[nH]1 + Clc1ccc(Nc2nnc(Cc3ccncc3)c3ccccc23)cc1 [vatalanib] (first compound 0.04 µM, partner dose 2 µM) | 114 | 93.4 | 146 | 70.7 | 134 | 73.8 | 110 | 122 | 127 | 121 | 81.7 | 146 | 155 | 63 | 59.9 | 91.7 | 50.1 | 111 | 41.5 |
| O=C(O)c1ccc2c(c1)nc(Nc1cccc(Cl)c1)c1ccncc12 + Nc1ncn([C@H]2C[C@H](O)[C@@H](CO)O2)c(=O)n1 [decitabine] (first compound 0.4 µM, partner dose 0.1 µM) | 111 | 151 | 332 | 222 | 71.7 | 77.4 | 214 | 440 | 273 | 174 | 78 | 133 | 285 | 131 | 141 | 152 | 120 | 151 | 124 |
| O=C(O)c1ccc2c(c1)nc(Nc1cccc(Cl)c1)c1ccncc12 + Cn1nnc2c(C(N)=O)ncn2c1=O [temozolomide] (first compound 0.4 µM, partner dose 2 µM) | 79.9 | 45.9 | 154 | 120 | 70.4 | 77.4 | 157 | 220 | 140 | 201 | 181 | 131 | 125 | 157 | 46.6 | 234 | 24.8 | 430 | 151 |
| O=C(O)c1ccc2c(c1)nc(Nc1cccc(Cl)c1)c1ccncc12 + C=C(c1ccc(C(=O)O)cc1)c1cc2c(cc1C)C(C)(C)CCC2(C)C [Bexarotene] (first compound 0.4 µM, partner dose 2 µM) | 52.8 | 54.9 | 243 | 57.8 | 80.3 | 29.4 | 199 | 233 | 179 | 185 | 163 | 104 | 108 | 155 | 89 | 130 | 66.3 | 109 | 297 |
| CO[C@H]1C[C@@H]2CC[C@@H](C)[C@@](O)(O2)C(=O)C(=O)N2CCCC[C@H]2C(=O)O[C@H]([C@H](C)C[C@@H]2CC[C@@H](OCCO)[C@H](OC)C2)CC(=O)[C@H](C)/C=C(\C)[C@@H](O)[C@@H](OC)C(=O)[C@H](C)C[C@H](C)/C=C/C=C/C=C/1C [everolimus] + C=CCNC1=C2C[C@@H](C)C[C@H](OC)[C@H](O)[C@@H](C)/C=C(\C)[C@H](OC(N)=O)[C@@H](OC)/C=C\C=C(/C)C(=O)NC(=CC1=O)C2=O [Tanespimycin] (first compound 0.02 µM, partner dose 0.002 µM) | 461 | 127 | 88.5 | 1200 | 102 | 170 | 87.3 | 153 | 73.6 | 154 | 363 | 155 | 113 | 159 | 223 | 42.1 | 148 | 66.5 | 102 |
| Nc1ccn([C@@H]2O[C@H](CO)[C@@H](O)C2(F)F)c(=O)n1 [gemcitabine] + Clc1ccc(Nc2nnc(Cc3ccncc3)c3ccccc23)cc1 [vatalanib] (first compound 0.0004 µM, partner dose 2 µM) | 61 | 59.8 | 245 | 66.5 | 86.1 | 61.7 | 181 | 143 | 127 | 47.5 | 197 | 131 | 138 | 183 | 59.7 | 220 | 368 | 65.6 | 159 |

2 entries from above in a different format.
Compound	cleaved PARP positive nuclei fraction [1] [%]	cleaved PARP positive nuclei fraction [2] [%]	cleaved PARP positive nuclei fraction [3] [%]	cleaved PARP positive nuclei fraction [4] [%]	cleaved PARP positive nuclei fraction [5] [%]	cleaved PARP positive nuclei fraction [6] [%]	cleaved PARP positive nuclei fraction [7] [%]	cleaved PARP positive nuclei fraction [8] [%]	cleaved PARP positive nuclei fraction [9] [%]	cleaved PARP positive nuclei fraction [10] [%]	cleaved PARP positive nuclei fraction [11] [%]	cleaved PARP positive nuclei fraction [12] [%]	cleaved PARP positive nuclei fraction [13] [%]	cleaved PARP positive nuclei fraction [14] [%]	cleaved PARP positive nuclei fraction [15] [%]	cleaved PARP positive nuclei fraction [16] [%]	cleaved PARP positive nuclei fraction [17] [%]	cleaved PARP positive nuclei fraction [18] [%]	cleaved PARP positive nuclei fraction [19] [%]
O=C(O)[C@@H]1[O][Sb](=[O])([O][Sb]2(=[O])[O][C@H]([C@H](O)CO)[C@H](O)[C@H](C(=O)O)[O]2)[O][C@H]([C@H](O)CO)[C@@H]1O (some centres undefined) [stibogluconate] + CO[C@H]1C[C@@H]2CC[C@@H](C)[C@@](O)(O2)C(=O)C(=O)N2CCCC[C@H]2C(=O)O[C@H]([C@H](C)C[C@@H]2CC[C@@H](OCCO)[C@H](OC)C2)CC(=O)[C@H](C)/C=C(\C)[C@@H](O)[C@@H](OC)C(=O)[C@H](C)C[C@H](C)/C=C/C=C/C=C/1C [everolimus] (first compound 2 µM, partner dose 0.02 µM)	501	50.8	51.1	1340	109	122	73	144	291	52.6	122	205	125	78.4	159	148	140	182	36.4
Nc1ccn([C@@H]2O[C@H](CO)[C@@H](O)C2(F)F)c(=O)n1 [gemcitabine] + Clc1ccc(Nc2nnc(Cc3ccncc3)c3ccccc23)cc1 [vatalanib] (first compound 0.0004 µM, partner dose 2 µM)	61	59.8	245	66.5	86.1	61.7	181	143	127	47.5	197	131	138	183	59.7	220	368	65.6	159
